Experimental data from PubChem BioAssay AID504847 (National Center for Advancing Translational Sciences (NCATS), 2011).
Out of some 400,000 compounds screened, about 3,700 (0.93%) were called active. Inconclusive results, whose numbers are uncertain, are shown with a selection of clear calls. The call rests on the fitted dose curve; in most records, active means well fitted inhibition curve with a large enough effect; inconclusive means small, poorly fitted or top-dose-only effect, or another doubt; inactive means no such curve, though single readings can be large or run the other way. Potencies beside an inconclusive call are fits to weak or partial responses and may not hold up.

Sequences of proteins named here, by UniProt entry; tags and fusion partners are left off.
UniProt P11473, whole entry, looked up: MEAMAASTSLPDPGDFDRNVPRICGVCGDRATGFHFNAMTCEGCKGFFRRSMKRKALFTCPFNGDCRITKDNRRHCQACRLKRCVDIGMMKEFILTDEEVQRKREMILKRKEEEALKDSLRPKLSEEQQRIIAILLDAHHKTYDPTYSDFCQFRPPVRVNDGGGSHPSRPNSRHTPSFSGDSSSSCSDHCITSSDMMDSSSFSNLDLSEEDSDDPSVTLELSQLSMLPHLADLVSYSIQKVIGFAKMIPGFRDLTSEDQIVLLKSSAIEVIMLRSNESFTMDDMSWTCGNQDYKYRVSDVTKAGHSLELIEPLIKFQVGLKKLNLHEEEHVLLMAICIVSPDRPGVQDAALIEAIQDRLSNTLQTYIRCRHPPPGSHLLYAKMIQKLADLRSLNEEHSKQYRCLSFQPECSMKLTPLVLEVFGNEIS

Target: Vitamin D3 receptor (Homo sapiens) (UniProt P11473)
Experiment: Inhibitors of the vitamin D receptor (VDR): qHTS
Details: VDR-SRC2-3 peptide fluorescence polarization, 2 h; max response, negative = inhibition: active compounds read low
Method in brief: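 The screen uses fluorescence polarization to detect compounds that interfere with recruitment of the SRC2-3 coactivator peptide to VDR; plates are read after 2 h at room temperature.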
On the % scale 0 is the no-effect control and ±100 the full control effect; potency means the concentration at half of the fitted maximal effect.

Potency, active:
O=C1ON=C(c2ccccc2)/C1=C/c1ccc(-c2ccccc2[N+](=O)[O-])o1 35.5 µM
O=C(O)c1cccc(Nc2cc(Cl)c3nonc3c2[N+](=O)[O-])c1 12.6 µM
Cc1ccc(CNc2ccc(O)cc2)cc1 20 µM
Cc1cccc2c1N(CCCOc1ccc(C(C)(C)C)cc1)C(=O)C2=O 39.8 µM

Potency, inconclusive:
Cc1cc(C)c(S(=O)(=O)NCC23C=CC(O2)C2C(=O)N(c4ccccc4)C(=O)C23)c(C)c1 (stereo not given) 56.2 µM [inhibitor, partial curve, poor fit]
COc1ccc(/C=C/C(=O)C2CC2)cc1COc1cccc(C)c1C 79.4 µM [inhibitor, partial curve, poor fit]
O=C(O)CN1C(=O)/C(=C\c2ccc(OC(=O)c3ccco3)cc2)SC1=S 89.1 µM [inhibitor, single point]
CCOC(=O)c1c(C)oc2c1c(C(c1ccncc1)N1CCOCC1)c(O)c1ccccc12 (stereo not given) 56.2 µM [inhibitor, partial curve, poor fit]
O=C(CNc1cccc2ccccc12)c1ccc([N+](=O)[O-])cc1 89.1 µM [inhibitor, partial curve, poor fit]
CCn1nc(C(=O)NCC2COc3ccccc3O2)c2ccccc2c1=O (stereo not given) 100 µM [inhibitor, single point]
C#C[C@]1(OC(C)=O)CC[C@H]2[C@@H]3CCC4=CC(=O)CC[C@@H]4[C@H]3CC[C@@]21C 79.4 µM [inhibitor, partial curve]
O=C1ON=C(c2cccc([N+](=O)[O-])c2)/C1=C/c1ccc(O)cc1 28.2 µM [inhibitor, single point]
CC(C)C(NS(=O)(=O)c1ccc(-c2ccc(Br)cc2)cc1)C(=O)O (stereo not given) 50.1 µM [inhibitor, partial curve, poor fit]
CCCc1nc2c(C)cc(-c3nc4ccccc4n3C)cc2n1Cc1ccc(-c2ccccc2C(=O)O)cc1 28.2 µM [inhibitor, partial curve]
CC(C)CCNC(=O)C1CCN(S(=O)(=O)c2cccc3nsnc23)CC1 17.8 µM [inhibitor, partial curve, poor fit]
COC(=O)[C@H](CC(C)C)NC(=O)c1cc2c(cn1)[nH]c1ccccc12 35.5 µM [inhibitor, partial curve, poor fit]
O=C(NCCCc1ccncc1)C1CCC(=O)N(Cc2cccc(F)c2)C1 (stereo not given) 39.8 µM [inhibitor, single point]
CC1(C)Cc2c(C#N)c(OCC(=O)c3ccccc3)nc(-c3ccoc3)c2CO1 89.1 µM [inhibitor, single point]
Cn1c(/C(C#N)=C/C2CC=CCC2)nc2ccccc21 (stereo not given) 31.6 µM [inhibitor, full curve]
O=c1oc2ccccc2cc1-c1ccc(O)cc1 5.01 µM [inhibitor, full curve, poor fit]
O=C(/C=C/c1cccnc1)c1cc(F)ccc1O 89.1 µM [inhibitor, single point]
O=c1[nH]nc(CNc2ccc(O)cc2)c2ccccc12 89.1 µM [inhibitor, single point]
CN1C(=O)/C(=C/c2ccc(-c3ccccc3[N+](=O)[O-])o2)SC1=Nc1ccc(Cl)c(C(=O)O)c1 89.1 µM [inhibitor, single point]
Oc1ccccc1C1CC(c2cccs2)=NC(c2ccc(Cl)cc2)N1 (stereo not given) 70.8 µM [inhibitor, partial curve]
COc1ccc(-c2cc(-c3ccccc3)nc(N)n2)c(O)c1 39.8 µM [inhibitor, single point]
CCOc1ccc(N=Nc2ccc(N)cc2N)cc1 15.8 µM [inhibitor, full curve]
C=CCNC(=S)NNc1nc2c(c(=O)[nH]1)C1(CCCC1)Cc1ccccc1-2 39.8 µM [inhibitor, partial curve, poor fit]
Cc1ccc(NC2CCCN(C(=O)CSc3ccccn3)C2)cc1C (stereo not given) 89.1 µM [inhibitor, single point]

Reprinted at random: 2 records from the list.
Potency, inconclusive:
Cn1c(/C(C#N)=C/C2CC=CCC2)nc2ccccc21 (stereo not given) 31.6 µM [inhibitor, full curve]
CCn1nc(C(=O)NCC2COc3ccccc3O2)c2ccccc2c1=O (stereo not given) 100 µM [inhibitor, single point]

Next part:

Max response, negative = inhibition, inactive:
COc1cc2c(=O)n(CCCN3CCOCC3)c(=S)[nH]c2c(OC)c1OC 12%
Cc1c(C(=O)Nc2ccc(Cl)cc2)c2ccccn2c1CCc1ccncc1 1.07%
c1ccc(CN2CCC3(CC2)Nc2ccccc2S3)cc1 -22.1%
CCC(C)c1ccccc1O (stereo not given) 13%
CCOC(=O)C1CCN(S(=O)(=O)c2ccc(N3CCCCS3(=O)=O)cc2)CC1 10.3%
Cc1ccc(OCCCCN(C)Cc2ccccc2)c(Br)c1 -13.3%
O=C(CC1NCCC[C@H]1O)Cn1cnc2cc(Br)c(Cl)cc2c1=O (stereo not given in full) -3.6%
COCCn1c(=S)[nH]c2cc(C(=O)N3CCC(C(N)=O)(N4CCCCC4)CC3)ccc2c1=O 2.12%
Cc1ccc(-c2csc3ncnc(SCC(=O)c4ccc5c(c4)OCCO5)c23)cc1 -1.03%
CCC1NC(=S)NC(C)=C1C(=O)c1ccccc1 (stereo not given) -1.68%
Cc1n[nH]c(=S)n(NC(=O)/C=C/C(=O)Nn2c(=S)[nH]nc(C)c2=O)c1=O -15.7%
Cc1cc(/C=N/n2cnnc2)c(C)n1-c1ccc(C(=O)O)cc1 7.49%
CN(C)c1ncc2nc(-c3cccs3)c(=O)n(C)c2n1 -1.22%
O=C(Oc1ccnc2cc(Cl)ccc12)N1CCCCCC1 -19.6%
Cc1ccc(-n2c(=O)[nH]c3ncccc3c2=O)cc1 0.278%
Clc1ccc(Nc2ncnc3c2cnn3-c2ccccc2)cc1 -12%
CCN1CCCC1Cn1cnc2c([nH]c3ccc(Cl)cc32)c1=O (stereo not given) 4.28%
